The values below come from PubChem BioAssay AID2685 (National Center for Advancing Translational Sciences (NCATS), 2010).

The other results are listed elsewhere or left out. Shown are side measurements of this screen, not its main read-out; they come without a call. Compounds called inactive in the main read-out are mostly missing here. Potencies come from curve fits of mixed quality, noted in brackets.

This test is described as follows: qHTS Assay for Lipid Storage Modulators in Drosophila S3 Cells.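 For cell number change: cells counted by Cell Tracker Red CMTPX staining in the red channel.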 The note with it: BODIPY lipid droplet fluorescence, 18-24 h; for cell number change: measured here: cell count max response, cells fed with added oleic acid. An outline of the steps:
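Drosophila S3 cells got compounds at several concentrations plus oleic acid (400 uM solution). Laser-scanning cytometry with 488 nm excitation read lipid droplets at 500-530 nm and cells at 575-640 nm. Percent activity was relative to 20 uM Triacsin C.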

[1] abbreviates: measured here: lipid fluorescence (Fed channel) AC50, cells fed with added oleic acid.
The mark [2] stands for this setting: measured here: cell number channel AC50, cells fed with added oleic acid.

With `CCSC(=Nc1ccccc1)C1=C(O)COC1=O`, the cell number change is 1.2%. Further, the AC50 under setting [1] is 0.731 µM [falling, partial curve].

For `Cc1ccc(NC(=O)Cn2c(CCC(=O)O)ccc2-c2ccc(Cl)cc2)cc1`, the cell number change was 15.9%. Further, the concentration at half-maximal activity (AC50) under setting [1] was 5.17 µM [rising, partial curve].

Take `CSC1=NCCN1C(=O)c1cccs1`: the cell number change was -54.9%. For the same molecule, under setting [2], the AC50 was 4.11 µM [falling, full curve]. Further, under setting [1], the AC50 was 3.26 µM [rising, single point].

As for `COc1cc(CNn2cnnc2)ccc1OCC(=O)NC1CCCCC1`, the half-maximal activity concentration (AC50) under setting [2] was 1.84 µM [rising, partial curve].

As for `Cc1[nH]c2ccccc2c1C(=O)CNc1nccs1`, the AC50 under setting [2] was 0.411 µM [rising, single point].

Regarding `CCCCOc1ccc(CN(CCO)CCO)cc1[N+](=O)[O-]`, the cell number change is -8.51%. The half-maximal activity concentration (AC50) under setting [2] was 2.59 µM [falling, single point].

Turning to `Cc1ccc(N=Cc2cc(Cc3ccccc3Cl)cc([N+](=O)[O-])c2O)c(O)c1`, the cell number change was -46.7%. The AC50 under setting [2] was 29.1 µM [falling, single point]. Moreover, the AC50 under setting [1] is 20.6 µM [falling, single point].

For `O=C(CC(=O)c1ccccc1O)c1cccc(F)c1`, the cell number change was -29%. In addition, the AC50 under setting [1] was 6.51 µM [rising, single point].

As to `O=c1[nH]c2ccccc2nc1CCc1ccccc1`, the cell number change is -30.7%. For the same molecule, the half-maximal activity concentration (AC50) under setting [2] is 0.13 µM [falling, full curve, poor fit].

For the molecule `Cc1ccnc(N2C(=O)c3cccc4c([N+](=O)[O-])ccc(c34)C2=O)c1`, the cell number change was -145%. Also, the AC50 under setting [2] is 18.4 µM [falling, single point]. Further, under setting [1], the concentration at half-maximal activity (AC50) is 29.1 µM [falling, single point].

Consider `COc1ccc(OC)c(C2C(C(C)=O)=C(O)C(=O)N2c2ccc(F)cc2)c1` (configuration not stated), for which the cell number change turned out to be 26.7%. For the same molecule, under setting [2], the AC50 is 0.146 µM [rising, full curve, poor fit]. Also, under setting [1], the half-maximal activity concentration (AC50) is 0.461 µM [falling, full curve].

Regarding `Cc1ccc(N(C(=O)CNC(=O)c2ccco2)C(C(=O)NC2CCCCC2)c2cccnc2)cc1` (configuration not stated), the cell number change stood at 26.1%.

In the case of `O=c1cc(O)c(-c2cccc(Cl)c2)c(Cl)[nH]1`, the cell number change was -98.5%. For the same molecule, under setting [2], the AC50 is 29.1 µM [falling, partial curve, poor fit]. The concentration at half-maximal activity (AC50) under setting [1] was 0.461 µM [falling, partial curve, poor fit].

With `O=C(O)c1ccc(S(=O)(=O)N2CCCCCC2)cc1`, the cell number change came to 16.6%. Further, under setting [1], the AC50 is 23.1 µM [rising, single point].

Consider `CN1CCN(Cc2cc(=O)oc3ccc(Cl)cc23)CC1`, for which the cell number change was -0.974%. The half-maximal activity concentration (AC50) under setting [1] was 0.00517 µM [falling, full curve, poor fit].

For the molecule `Cc1ccc(NC(=O)CCNCc2ccco2)cc1S(=O)(=O)N(C)C`, the cell number change turned out to be 7.08%.

Turning to `COc1cc(CNCCN2CCOCC2)ccc1OCc1ccccc1Cl`, the cell number change was -47.2%. Moreover, the half-maximal activity concentration (AC50) under setting [2] is 4.11 µM [falling, single point].

Turning to `COc1ccccc1-n1cnnc1SCC(=O)NC1CCCC1`, the cell number change was 2.26%. The AC50 under setting [1] was 18.4 µM [falling, single point].

Turning to `CN(CC(=O)Nc1ccc(F)c(F)c1F)C1CCCCC1`, the cell number change came to 3.73%.

Take `Cc1ccc(-c2noc(CCC(=O)NCCN3CCN(Cc4ccccc4)CC3)n2)cc1`: the cell number change is -21.1%. Moreover, under setting [1], the AC50 was 0.00517 µM [falling, full curve, poor fit].

On to `Cc1ccc(C(=O)NC(=S)Nc2ccc(CN3CCCCC3)cc2)c(C)c1`, for which the cell number change is -86.3%. Besides, under setting [2], the half-maximal activity concentration (AC50) was 18.4 µM [falling, partial curve].

`Cc1nnc(SCC(=O)N(Cc2ccccc2)C(C)C)n1-c1ccccc1`: the cell number change was -18.5%. The half-maximal activity concentration (AC50) under setting [2] is 0.146 µM [rising, full curve, poor fit].

As for `Brc1cc2ccccc2[n+](Cc2ccccc2)c1`, the cell number change is 5.41%. Under setting [1], the AC50 was 2.59 µM [falling, single point].

Take `O=C(Nc1ccccc1)N1CCN2C(=O)c3ccccc3C12c1ccccc1` (configuration not stated): the cell number change was -21.2%.

As for `CCOc1ccc(CN(C)C(=O)[C@H](C)NC(=O)c2ccco2)cc1OC`, the cell number change was -5.13%. Besides, the AC50 under setting [1] is 0.00411 µM [rising, full curve, poor fit].

On to `CC(C)C(=O)NC(=S)Nc1ccc(S(=O)(=O)N(C)Cc2ccccc2)cc1`, for which the AC50 under setting [2] was 0.731 µM [rising, single point].

As for `CN1CCCC(OC(=O)CCCC(=O)OC2CCCN(C)C2)C1` (configuration not stated), the cell number change came to 10.6%. Under setting [1], the AC50 is 29.1 µM [rising, single point].

Regarding `O=C(Nc1ccc(F)cc1)c1nn(-c2ccccc2)c(=O)cc1Cl`, the cell number change is -28%. For the same molecule, the half-maximal activity concentration (AC50) under setting [1] is 25.9 µM [falling, partial curve, poor fit].

As for `O=C1N(c2ccc(Cl)c(Cl)c2)CN(Cc2ccccc2)CN1n1cnnc1`, the cell number change was found to be 2.21%. Also, the AC50 under setting [1] is 29.1 µM [falling, single point].

Consider `Cc1ccc(S(=O)(=O)NCCC(c2ccccc2)c2ccccc2)cc1C(=O)O`, for which, under setting [1], the AC50 is 1.03 µM [falling, single point].

Regarding `S=C(Nc1ccc(OCc2ccccc2)cc1)Nc1cccc(Cl)c1Cl`, the cell number change is -48%. Also, the AC50 under setting [2] was 29.1 µM [falling, single point]. The AC50 under setting [1] was 29.1 µM [falling, single point].

In the case of `O=Cc1ccnc(-c2ccc(OC(=O)c3ccco3)cc2)n1`, the cell number change was -21.4%. Under setting [1], the AC50 was 4.11 µM [falling, full curve, poor fit].

`CC1=CC(=O)CC(C)(C)C1(O)/C=C/C(C)=C/C(=O)O` (configuration not stated): the cell number change was -28.8%. Under setting [2], the half-maximal activity concentration (AC50) was 0.0184 µM [falling, full curve]. For the same molecule, the half-maximal activity concentration (AC50) under setting [1] is 16.4 µM [falling, partial curve].

For the molecule `CCCS(=O)(=O)N1CCC(CCOc2ccccc2)(C(=O)OCC)CC1`, the cell number change is -19.6%. Under setting [2], the half-maximal activity concentration (AC50) is 0.731 µM [falling, full curve, poor fit]. Also, under setting [1], the AC50 was 0.731 µM [falling, full curve].

With `CCOc1ccc(CN(C)CC(=O)Nc2cccc3ccccc23)cc1OC`, the cell number change was -14.3%. For the same molecule, the half-maximal activity concentration (AC50) under setting [2] was 0.82 µM [falling, full curve, poor fit]. Also, the AC50 under setting [1] was 0.259 µM [falling, full curve, poor fit].

`CCc1cccc(C)c1NC(=O)c1cccnc1`: the cell number change was 7.61%.

With `CCC(C)(C)NC(=O)c1ccc(S(=O)(=O)N(C)c2ccccc2OC)cc1`, the cell number change is 5.23%. Moreover, under setting [2], the concentration at half-maximal activity (AC50) is 1.64 µM [falling, partial curve]. For the same molecule, the half-maximal activity concentration (AC50) under setting [1] is 0.731 µM [falling, full curve].

Regarding `CCCCCCSc1ccc([C@H]2N[C@@](CC(C)C)(C(=O)OC)[C@H]3C(=O)N(C)C(=O)[C@@H]23)cc1`, the cell number change is -57.6%. Moreover, under setting [2], the AC50 is 18.4 µM [falling, partial curve]. For the same molecule, the AC50 under setting [1] is 0.00517 µM [falling, full curve, poor fit].

`C=CCNc1nc(C(F)(F)F)nc2c1nnn2Cc1ccccc1Cl`: the cell number change was 16.8%.

As to `COc1ccc(CN(C)CC(=O)Nc2cccc(S(=O)(=O)N(C)c3ccccc3)c2)c(OC)c1`, the cell number change was -6.59%. For the same molecule, the AC50 under setting [1] is 2.59 µM [falling, partial curve, poor fit].

As to `N/C(=N\OC(=O)COc1ccc(Cl)cc1)c1ccc(Cl)cc1`, the cell number change is -12.7%.

With `CCOC(=O)N[C@H](Cc1c[nH]c2ccccc12)C(=O)NC1CC1`, the cell number change turned out to be 2.46%. In addition, the AC50 under setting [1] was 29.1 µM [falling, single point].

Turning to `O=C(Nc1ccc(S(=O)(=O)Nc2ccc(Cl)cc2)cc1)C1CCCO1` (configuration not stated), the cell number change came out at 21.8%. Further, the half-maximal activity concentration (AC50) under setting [1] is 6.51 µM [rising, single point].

`O=C(C1CCCN(S(=O)(=O)c2cccc3cccnc23)C1)N1CCc2ccccc21` (configuration not stated): the cell number change is -0.264%. Moreover, the AC50 under setting [1] was 18.4 µM [rising, single point].

Take `COc1ccc(NC(=O)C2=CC(c3ccc(OC)c(OC)c3)=NS(=O)(=O)N2C)cc1`: the cell number change came to 18.4%. The AC50 under setting [1] was 0.517 µM [falling, single point].

Take `COc1ccc(-c2cnc(SCCNC(=O)c3ccc4c(c3)OCO4)[nH]2)cc1`: the AC50 under setting [1] is 5.17 µM [rising, partial curve, poor fit].

Take `COc1cccc(NC(=O)CN(C)C(=O)c2ccc(COc3ccccc3)o2)c1`: the cell number change was -20%. In addition, the AC50 under setting [2] is 1.64 µM [falling, partial curve, poor fit]. Also, under setting [1], the half-maximal activity concentration (AC50) was 1.84 µM [falling, single point].

As to `Nc1c(C(=O)NC2CCCC2)c2nc3ccccc3nc2n1/N=C/c1ccco1`, the cell number change worked out at 93.8%. Further, under setting [2], the AC50 is 2.06 µM [rising, full curve]. The AC50 under setting [1] is 3.26 µM [rising, partial curve].

For the molecule `O=C(Nc1ccccc1)c1ccc2c(c1)OCCO2`, the cell number change was found to be 44.1%. The AC50 under setting [2] is 29.1 µM [rising, single point].

As for `CCc1ccccc1-n1c(SCC(=O)NC)nnc1-c1cccnc1`, the cell number change was -29.6%. Under setting [2], the concentration at half-maximal activity (AC50) was 0.206 µM [falling, full curve, poor fit].

With `Cc1cccc(N(C(=O)CNC(=O)c2ccco2)C(C(=O)NC2CCCC2)c2ccncc2)c1C` (configuration not stated), the cell number change worked out at 4.76%.

As for `Cc1ccc(C(=O)c2cc([N+](=O)[O-])ccc2N2CCCCC2)c(C)c1`, the cell number change is -47.3%. Also, under setting [2], the AC50 was 1.64 µM [falling, partial curve]. Further, under setting [1], the half-maximal activity concentration (AC50) is 18.4 µM [rising, single point].

For `COc1ccc(N=Nc2ccc3ccccc3c2)c(O)c1`, the AC50 under setting [1] was 0.82 µM [falling, full curve].

Take `CC1CCN(C(=O)CSc2ccc(-c3ccc(F)cc3)nn2)CC1`: the cell number change is -10.7%. In addition, the AC50 under setting [1] is 0.82 µM [rising, single point].

With `Cc1ccnc(NC(=O)CNC(=O)C23CC4CC(CC(C4)C2)C3)c1`, the cell number change is -61.2%. Besides, under setting [2], the AC50 was 23.1 µM [falling, partial curve, poor fit]. Further, the half-maximal activity concentration (AC50) under setting [1] was 0.146 µM [falling, full curve, poor fit].

With `COC(=O)c1sccc1NC(=O)Nc1cc(OC)ccc1OC`, the cell number change amounted to 19%. Further, the AC50 under setting [2] was 2.06 µM [rising, partial curve]. Besides, the AC50 under setting [1] was 25.9 µM [rising, single point].

In the case of `COc1cc(OC)cc(-c2c(-c3cccs3)c3cc(-c4ccc5c(c4)OCCO5)ccc3n2C)c1`, the cell number change is -11.4%.

As for `CCc1ccc(CNc2ccc3c(c2)ncn3C)cc1`, the cell number change is -19.7%. Besides, the AC50 under setting [1] is 18.4 µM [falling, single point].

Usually AC50 stands for the midpoint of the concentration-response curve, whichever way the signal moves. Low values mean greater potency, high ones weaker potency.
